Paper PMC10470772
These are yes or no findings as the source states them, for the method shown. Binding seen in cells or lysates may run through a third protein. Some results given as binding are weak or reduced against the parent protein; the word gives no strength.

Protein sequences, listed by entry. Tags and fused reporters are not part of them.
UniProt P0DKA0: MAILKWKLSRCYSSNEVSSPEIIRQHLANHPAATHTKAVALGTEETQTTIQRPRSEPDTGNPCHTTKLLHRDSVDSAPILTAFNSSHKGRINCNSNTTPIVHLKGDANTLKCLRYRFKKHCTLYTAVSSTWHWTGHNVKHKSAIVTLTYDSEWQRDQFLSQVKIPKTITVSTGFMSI
UniProt O15379: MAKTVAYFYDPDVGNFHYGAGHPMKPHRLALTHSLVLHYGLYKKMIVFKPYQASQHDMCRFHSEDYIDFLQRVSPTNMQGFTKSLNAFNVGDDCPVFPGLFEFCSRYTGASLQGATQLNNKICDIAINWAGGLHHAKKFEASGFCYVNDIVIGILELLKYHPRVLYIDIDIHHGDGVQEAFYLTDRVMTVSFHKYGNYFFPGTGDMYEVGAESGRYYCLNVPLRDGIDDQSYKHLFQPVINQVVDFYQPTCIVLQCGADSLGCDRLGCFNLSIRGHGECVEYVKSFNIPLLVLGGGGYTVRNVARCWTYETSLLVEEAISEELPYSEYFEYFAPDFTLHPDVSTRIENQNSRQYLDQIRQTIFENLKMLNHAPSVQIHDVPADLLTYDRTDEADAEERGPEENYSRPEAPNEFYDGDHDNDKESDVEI

Target: HPV16 E8^E2-HA (human papillomavirus 16 (HPV16)) (UniProt P0DKA0)
Assay: co-IP; HeLa cells transfected with HA-tagged E8^E2 expression vectors; endogenous HDAC3 and TBL1; lysed in IP-buffer (50 mM HEPES pH 7.9, 150 mM NaCl, 0.3% Igepal 630, 1 mM DTT); precipitated with magnetic anti-HA beads; immunoblot with anti-HDAC3, anti-TBL1 and anti-HA

Molecule	binding
endogenous HDAC3 (histone deacetylase 3) (from UniProt O15379 1-428)	binds
endogenous TBL1 (transducin beta-like protein 1) (protein, UniProt O60907 1-577) MTELAGASSSCCHRPAGRGAMQSVLHHFQRLRGREGGSHFINTSSPRGEAKMSITSDEVNFLVYRYLQESGFSHSAFTFGIESHISQSNINGTLVPPAALISILQKGLQYVEAEISINEDGTVFDGRPIESLSLIDAVMPDVVQTRQQAFREKLAQQQASAAAAAAAATAAATAATTTSAGVSHQNPSKNREATVNGEENRAHSVNNHAKPMEIDGEVEIPSSKATVLRGHESEVFICAWNPVSDLLASGSGDSTARIWNLNENSNGGSTQLVLRHCIREGGHDVPSNKDVTSLDWNTNGTLLATGSYDGFARIWTEDGNLASTLGQHKGPIFALKWNRKGNYILSAGVDKTTIIWDAHTGEAKQQFPFHSAPALDVDWQNNTTFASCSTDMCIHVCRLGCDRPVKTFQGHTNEVNAIKWDPSGMLLASCSDDMTLKIWSMKQEVCIHDLQAHNKEIYTIKWSPTGPATSNPNSNIMLASASFDSTVRLWDIERGVCTHTLTKHQEPVYSVAFSPDGKYLASGSFDKCVHIWNTQSGNLVHSYRGTGGIFEVCWNARGDKVGASASDGSVCVLDLRK	binds
